# Assay results reported in the supplement of paper PMC12819154, “High-throughput peptide-centric local stability assay extends protein–ligand identification to membrane proteins, tissues and bacteria” (Nature Structural & Molecular Biology, 2025).
# The chains behind the UniProt entries cited, without tags or fusion partners. Where a name states a change or a piece, a line headed by the entry shows the natural chain unless it says otherwise.
# UniProt Q8JZW5: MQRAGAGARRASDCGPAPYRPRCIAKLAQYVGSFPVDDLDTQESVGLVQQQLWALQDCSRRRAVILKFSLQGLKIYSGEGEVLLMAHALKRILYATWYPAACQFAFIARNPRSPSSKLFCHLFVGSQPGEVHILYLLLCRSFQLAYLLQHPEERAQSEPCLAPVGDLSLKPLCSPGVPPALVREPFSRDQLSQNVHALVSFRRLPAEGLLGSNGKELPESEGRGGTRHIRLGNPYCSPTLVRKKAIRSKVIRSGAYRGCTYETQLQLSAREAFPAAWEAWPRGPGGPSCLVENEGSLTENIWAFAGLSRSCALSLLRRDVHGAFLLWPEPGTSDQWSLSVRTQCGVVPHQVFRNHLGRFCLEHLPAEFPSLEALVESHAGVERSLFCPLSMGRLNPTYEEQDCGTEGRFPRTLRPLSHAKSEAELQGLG
# UniProt Q8CFT2, whole entry: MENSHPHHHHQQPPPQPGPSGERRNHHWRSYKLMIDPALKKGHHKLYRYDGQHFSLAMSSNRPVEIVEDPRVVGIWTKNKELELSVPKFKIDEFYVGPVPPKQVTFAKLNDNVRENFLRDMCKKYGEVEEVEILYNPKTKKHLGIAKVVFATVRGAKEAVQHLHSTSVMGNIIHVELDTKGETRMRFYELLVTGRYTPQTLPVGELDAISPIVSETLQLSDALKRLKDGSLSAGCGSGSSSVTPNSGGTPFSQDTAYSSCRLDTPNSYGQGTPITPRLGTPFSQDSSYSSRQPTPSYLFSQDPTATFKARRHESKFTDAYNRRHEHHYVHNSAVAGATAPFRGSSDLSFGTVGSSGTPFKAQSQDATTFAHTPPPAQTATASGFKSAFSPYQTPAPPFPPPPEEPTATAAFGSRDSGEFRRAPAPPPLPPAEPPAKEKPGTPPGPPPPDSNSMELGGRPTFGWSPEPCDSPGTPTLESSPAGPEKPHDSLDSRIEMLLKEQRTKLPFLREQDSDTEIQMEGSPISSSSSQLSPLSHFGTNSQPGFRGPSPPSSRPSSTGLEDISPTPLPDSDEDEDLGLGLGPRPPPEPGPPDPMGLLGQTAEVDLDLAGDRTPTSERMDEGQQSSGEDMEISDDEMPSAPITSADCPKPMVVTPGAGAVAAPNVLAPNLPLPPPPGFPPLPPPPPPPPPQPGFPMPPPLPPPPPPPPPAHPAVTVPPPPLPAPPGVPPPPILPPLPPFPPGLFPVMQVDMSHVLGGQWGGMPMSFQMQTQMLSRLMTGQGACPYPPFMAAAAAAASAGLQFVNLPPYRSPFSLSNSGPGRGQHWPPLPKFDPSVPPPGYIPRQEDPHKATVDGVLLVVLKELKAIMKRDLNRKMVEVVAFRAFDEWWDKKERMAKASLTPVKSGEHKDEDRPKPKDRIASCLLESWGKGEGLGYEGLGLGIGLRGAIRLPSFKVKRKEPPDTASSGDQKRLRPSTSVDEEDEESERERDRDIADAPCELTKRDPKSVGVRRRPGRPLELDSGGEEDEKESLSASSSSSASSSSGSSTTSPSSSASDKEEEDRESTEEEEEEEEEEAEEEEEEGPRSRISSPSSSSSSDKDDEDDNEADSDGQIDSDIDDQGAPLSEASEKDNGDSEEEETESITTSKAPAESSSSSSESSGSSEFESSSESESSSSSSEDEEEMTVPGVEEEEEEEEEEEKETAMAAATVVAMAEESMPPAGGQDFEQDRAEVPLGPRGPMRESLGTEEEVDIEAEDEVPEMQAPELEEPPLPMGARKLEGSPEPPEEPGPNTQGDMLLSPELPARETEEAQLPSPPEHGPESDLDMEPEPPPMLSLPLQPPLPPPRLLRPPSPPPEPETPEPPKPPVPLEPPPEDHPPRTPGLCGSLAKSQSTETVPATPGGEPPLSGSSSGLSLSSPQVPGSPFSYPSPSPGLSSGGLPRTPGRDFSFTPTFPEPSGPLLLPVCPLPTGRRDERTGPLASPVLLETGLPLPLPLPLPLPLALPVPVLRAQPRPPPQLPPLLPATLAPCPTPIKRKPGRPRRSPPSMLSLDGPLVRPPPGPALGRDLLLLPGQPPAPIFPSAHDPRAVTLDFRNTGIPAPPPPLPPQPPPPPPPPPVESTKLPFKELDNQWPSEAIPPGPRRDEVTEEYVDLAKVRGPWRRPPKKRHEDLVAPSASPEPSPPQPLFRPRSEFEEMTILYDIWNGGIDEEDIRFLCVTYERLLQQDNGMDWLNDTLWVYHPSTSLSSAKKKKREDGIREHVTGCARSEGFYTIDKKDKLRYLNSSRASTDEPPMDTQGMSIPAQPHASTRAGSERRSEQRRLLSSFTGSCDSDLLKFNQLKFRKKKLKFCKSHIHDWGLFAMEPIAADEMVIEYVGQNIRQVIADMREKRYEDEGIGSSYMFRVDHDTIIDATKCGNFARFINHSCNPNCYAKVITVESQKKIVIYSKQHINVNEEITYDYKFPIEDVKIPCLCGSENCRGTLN
# UniProt Q8CIG3: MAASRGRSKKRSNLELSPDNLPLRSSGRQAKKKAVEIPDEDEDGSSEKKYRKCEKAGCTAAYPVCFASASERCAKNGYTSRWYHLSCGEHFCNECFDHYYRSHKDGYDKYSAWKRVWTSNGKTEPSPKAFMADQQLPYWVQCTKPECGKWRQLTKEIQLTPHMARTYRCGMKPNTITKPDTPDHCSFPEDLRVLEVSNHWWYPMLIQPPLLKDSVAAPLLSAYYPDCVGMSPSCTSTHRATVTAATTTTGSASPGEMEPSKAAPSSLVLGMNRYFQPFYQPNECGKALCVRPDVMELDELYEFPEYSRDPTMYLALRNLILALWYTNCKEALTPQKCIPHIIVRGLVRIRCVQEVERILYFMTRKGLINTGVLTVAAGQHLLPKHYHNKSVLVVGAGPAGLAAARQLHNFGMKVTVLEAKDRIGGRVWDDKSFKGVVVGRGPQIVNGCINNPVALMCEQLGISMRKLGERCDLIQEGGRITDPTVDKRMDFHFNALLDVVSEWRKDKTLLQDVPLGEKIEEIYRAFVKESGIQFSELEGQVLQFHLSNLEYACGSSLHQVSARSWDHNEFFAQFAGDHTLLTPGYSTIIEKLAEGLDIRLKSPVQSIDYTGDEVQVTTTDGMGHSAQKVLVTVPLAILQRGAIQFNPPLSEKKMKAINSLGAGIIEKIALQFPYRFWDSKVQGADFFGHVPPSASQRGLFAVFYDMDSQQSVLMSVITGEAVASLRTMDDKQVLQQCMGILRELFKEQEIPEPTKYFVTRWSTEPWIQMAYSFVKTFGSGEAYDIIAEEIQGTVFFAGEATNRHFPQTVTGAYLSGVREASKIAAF
# UniProt Q8CEC5: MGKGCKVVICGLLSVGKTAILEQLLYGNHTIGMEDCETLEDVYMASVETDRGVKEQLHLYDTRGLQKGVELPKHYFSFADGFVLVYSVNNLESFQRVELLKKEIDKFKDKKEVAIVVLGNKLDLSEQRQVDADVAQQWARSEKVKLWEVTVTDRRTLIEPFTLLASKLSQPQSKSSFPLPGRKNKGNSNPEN
# UniProt Q8JZP3: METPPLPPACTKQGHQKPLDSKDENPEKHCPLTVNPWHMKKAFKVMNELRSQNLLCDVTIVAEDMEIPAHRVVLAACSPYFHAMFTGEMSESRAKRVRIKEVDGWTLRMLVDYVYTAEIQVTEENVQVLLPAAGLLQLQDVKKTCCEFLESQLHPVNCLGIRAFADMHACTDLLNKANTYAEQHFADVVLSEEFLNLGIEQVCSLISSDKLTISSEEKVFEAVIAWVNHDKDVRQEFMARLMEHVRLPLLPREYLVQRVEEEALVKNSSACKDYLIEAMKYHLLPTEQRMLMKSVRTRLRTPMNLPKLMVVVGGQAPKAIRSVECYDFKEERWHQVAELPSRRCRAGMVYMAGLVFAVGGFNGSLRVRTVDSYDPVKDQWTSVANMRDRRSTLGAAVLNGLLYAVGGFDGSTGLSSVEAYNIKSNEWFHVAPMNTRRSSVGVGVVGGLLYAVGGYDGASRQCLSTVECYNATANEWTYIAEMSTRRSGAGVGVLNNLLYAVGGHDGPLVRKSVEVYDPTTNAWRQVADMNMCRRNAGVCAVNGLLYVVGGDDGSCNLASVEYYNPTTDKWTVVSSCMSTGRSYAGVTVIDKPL
# UniProt Q8CFI5: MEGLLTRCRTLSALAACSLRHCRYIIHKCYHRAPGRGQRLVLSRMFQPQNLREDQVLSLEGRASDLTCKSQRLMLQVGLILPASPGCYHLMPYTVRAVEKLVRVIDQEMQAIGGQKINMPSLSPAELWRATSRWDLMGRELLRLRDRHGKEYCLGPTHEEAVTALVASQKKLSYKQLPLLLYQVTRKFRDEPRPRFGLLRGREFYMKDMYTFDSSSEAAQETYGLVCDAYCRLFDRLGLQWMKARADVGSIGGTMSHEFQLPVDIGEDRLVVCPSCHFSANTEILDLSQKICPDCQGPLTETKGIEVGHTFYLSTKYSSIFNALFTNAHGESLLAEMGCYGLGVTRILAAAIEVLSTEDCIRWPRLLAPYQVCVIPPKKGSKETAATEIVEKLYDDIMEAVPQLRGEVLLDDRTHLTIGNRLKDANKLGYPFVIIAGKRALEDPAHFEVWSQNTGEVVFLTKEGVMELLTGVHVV
# UniProt Q8CGR7: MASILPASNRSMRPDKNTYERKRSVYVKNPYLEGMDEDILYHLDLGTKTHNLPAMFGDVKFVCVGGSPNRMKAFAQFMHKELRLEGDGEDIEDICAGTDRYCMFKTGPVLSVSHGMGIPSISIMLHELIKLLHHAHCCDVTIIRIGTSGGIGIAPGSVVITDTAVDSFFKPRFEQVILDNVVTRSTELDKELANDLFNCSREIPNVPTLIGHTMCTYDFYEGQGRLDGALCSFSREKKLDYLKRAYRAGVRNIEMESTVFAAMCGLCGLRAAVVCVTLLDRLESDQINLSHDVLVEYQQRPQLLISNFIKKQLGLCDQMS
# UniProt Q8CF98: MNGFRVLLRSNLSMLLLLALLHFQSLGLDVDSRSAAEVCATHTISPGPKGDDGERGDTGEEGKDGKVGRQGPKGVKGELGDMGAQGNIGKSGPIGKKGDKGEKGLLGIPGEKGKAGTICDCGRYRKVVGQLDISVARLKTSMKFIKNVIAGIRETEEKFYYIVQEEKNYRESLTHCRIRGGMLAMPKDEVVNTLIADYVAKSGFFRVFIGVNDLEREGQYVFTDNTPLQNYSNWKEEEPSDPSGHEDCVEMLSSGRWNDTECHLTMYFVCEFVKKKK
# UniProt Q8JZK9: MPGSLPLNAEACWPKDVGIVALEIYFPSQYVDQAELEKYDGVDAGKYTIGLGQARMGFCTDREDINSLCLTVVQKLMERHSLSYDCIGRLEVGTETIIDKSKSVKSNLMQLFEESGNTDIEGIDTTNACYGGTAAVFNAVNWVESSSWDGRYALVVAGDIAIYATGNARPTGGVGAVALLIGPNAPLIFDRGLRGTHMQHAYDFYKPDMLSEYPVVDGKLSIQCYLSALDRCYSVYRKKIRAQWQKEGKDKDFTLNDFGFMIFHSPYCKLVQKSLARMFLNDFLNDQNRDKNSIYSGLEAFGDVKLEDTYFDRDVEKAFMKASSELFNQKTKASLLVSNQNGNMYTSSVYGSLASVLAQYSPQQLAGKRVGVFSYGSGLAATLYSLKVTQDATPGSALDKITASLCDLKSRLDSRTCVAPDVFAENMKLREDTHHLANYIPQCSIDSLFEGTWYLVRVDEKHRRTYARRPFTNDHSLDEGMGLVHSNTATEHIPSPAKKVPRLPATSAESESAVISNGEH
# UniProt Q8CB27: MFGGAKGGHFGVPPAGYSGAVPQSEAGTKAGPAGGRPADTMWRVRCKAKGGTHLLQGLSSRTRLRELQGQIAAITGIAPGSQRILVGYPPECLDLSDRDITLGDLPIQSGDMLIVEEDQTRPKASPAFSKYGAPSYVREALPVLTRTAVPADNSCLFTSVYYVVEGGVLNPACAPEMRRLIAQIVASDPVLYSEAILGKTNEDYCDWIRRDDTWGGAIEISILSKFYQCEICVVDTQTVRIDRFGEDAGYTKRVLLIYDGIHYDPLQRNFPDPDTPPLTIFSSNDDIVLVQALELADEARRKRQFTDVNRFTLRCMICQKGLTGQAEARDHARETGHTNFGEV
# UniProt Q8CCK0, whole entry: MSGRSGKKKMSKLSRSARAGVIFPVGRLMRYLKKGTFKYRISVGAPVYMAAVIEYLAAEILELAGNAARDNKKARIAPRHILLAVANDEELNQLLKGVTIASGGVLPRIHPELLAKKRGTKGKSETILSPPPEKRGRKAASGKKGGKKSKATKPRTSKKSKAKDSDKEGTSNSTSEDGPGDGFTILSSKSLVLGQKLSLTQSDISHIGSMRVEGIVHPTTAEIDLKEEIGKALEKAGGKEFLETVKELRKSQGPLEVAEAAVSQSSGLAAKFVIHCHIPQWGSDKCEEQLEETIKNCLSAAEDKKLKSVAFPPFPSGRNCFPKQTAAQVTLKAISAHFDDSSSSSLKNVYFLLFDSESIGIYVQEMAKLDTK
# This is one part of the list. Small differences around the control level are noise.
# Compound: CN[C@@H]1C[C@H]2O[C@@](C)([C@@H]1OC)n1c3ccccc3c3c4c(c5c6ccccc6n2c5c31)C(=O)NC4 [staurosporine]
# Test: log2 fold change of tryptic peptide abundance, ligand vs vehicle (limited proteolysis) (log2 ratio); higher = more trypsin-susceptible (destabilized)
# Details: ligand concentration: 20 uM; sample: mouse liver crude lysate; replicate design: treated separately
target,measurement,value
"UniProt Q8JZW5 (peptide sequence: VIRSGAYR, peptide start residue: 250)",log2 fold change,-0.345
"UniProt Q8CFT2 (peptide sequence: GQHWPPLPK, peptide start residue: 822)",log2 fold change,-0.199
"UniProt Q8CIG3 (peptide sequence: AVEIPDEDEDGSSEKK, peptide start residue: 34)",log2 fold change,0.128
"UniProt Q8CEC5 (peptide sequence: VVICGLLSVGK, peptide start residue: 7)",log2 fold change,0.457
"UniProt Q8JZP3 (peptide sequence: YHLLPTEQR, peptide start residue: 281)",log2 fold change,0.336
"UniProt Q8CFI5 (peptide sequence: HGKEYCLGPTHEEAVTALVASQKK, peptide start residue: 148)",log2 fold change,-0.675
"UniProt Q8CGR7 (peptide sequence: STELDKELANDLFNCSR, peptide start residue: 185)",log2 fold change,-0.182
"UniProt Q8CF98 (peptide sequence: AGTICDCGR, peptide start residue: 115)",log2 fold change,-0.185
"UniProt Q8JZK9 (peptide sequence: ASSELFNQK, peptide start residue: 322)",log2 fold change,-0.262
"UniProt Q8CB27 (peptide sequence: QFTDVNR, peptide start residue: 304)",log2 fold change,-0.204
"UniProt Q8CCK0 (peptide sequence: AGVIFPVGR, peptide start residue: 19)",log2 fold change,0.159
